Reference: publication PMC8786951 (Scientific Reports, 2022)
End groups of sequences in plain letters are not given here.

Assay: peptide made by a vendor
Conditions: whole synthesis
[1] = 214nm, one disulfide bridge, sequence written open

Substance | final HPLC purity [1] | also measured
AVIPVSSPEPMEEASALQLLPGKI-NH2 |  | final HPLC purity (220nm): 95.083%
Met-Arg-Tyr-Met-Gly-Jle-Cys-Met-Lys-Lys-Gln-Tyr-Asn-Asn-Phe-lle-Pro-Phe-Pro-Cys-Leu-Arg-Se-NH2 |  | final HPLC purity (RP-HPLC, UV 214 nm or 220 nm (vendor certificate of analysis), Trifluoroacetate, one disulfide bridge, sequence written open): 98.39%
SHIRCLVNVIACY | 95.549% | 
SHVMCLVNLISCF | 95.039% | 
SHYNSMCMFNVVACY | 95.308% | 
TYSSMCMFNVVACY | 95.005% | 
